# Reference: the supplement of paper PMC4604168 (melanoma cell lines)
# The list shows a part of the results. Single values are uncertain, as repeats are few or missing.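 Cells were imaged in 1,536-well plates, and nuclei stained with an antibody against cleaved PARP were counted against all DNA-stained nuclei to give the apoptosis fraction. Screening doses were chosen to leave most cells alive, and resting and induced cleaved-PARP levels differ strongly between cell lines.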
# Key:
# Experiment in all cases: cleaved PARP positive nuclei fraction relative to DMSO control; melanoma cells; higher = more apoptosis
# Details in all cases: library dose: low library concentration; 72 h
# 501Mel = system: 501Mel
# A101D = system: A101D
# A2058 = system: A2058
# C32 = system: C32
# CBRC008 = system: CBRC008 (line from a melanoma biopsy)
# CBRC014 = system: CBRC014 (line from a melanoma biopsy)
# CBRC016 = system: CBRC016 (line from a melanoma biopsy)
# CBRC017 = system: CBRC017 (line from a melanoma biopsy)
# COLO792 = system: COLO792
# COLO800 = system: COLO800
# COLO829 = system: COLO829
# G361 = system: G361
# IPC-298 = system: IPC-298
# IST-MEL1 = system: IST-MEL1
# LB2518-MEL = system: LB2518-MEL
# LOXIMVI = system: LOXIMVI
Compound,cleaved PARP positive nuclei fraction (501Mel) [%],cleaved PARP positive nuclei fraction (A101D) [%],cleaved PARP positive nuclei fraction (A2058) [%],cleaved PARP positive nuclei fraction (C32) [%],cleaved PARP positive nuclei fraction (CBRC008) [%],cleaved PARP positive nuclei fraction (CBRC014) [%],cleaved PARP positive nuclei fraction (CBRC016) [%],cleaved PARP positive nuclei fraction (CBRC017) [%],cleaved PARP positive nuclei fraction (COLO792) [%],cleaved PARP positive nuclei fraction (COLO800) [%],cleaved PARP positive nuclei fraction (COLO829) [%],cleaved PARP positive nuclei fraction (G361) [%],cleaved PARP positive nuclei fraction (IPC-298) [%],cleaved PARP positive nuclei fraction (IST-MEL1) [%],cleaved PARP positive nuclei fraction (LB2518-MEL) [%],cleaved PARP positive nuclei fraction (LOXIMVI) [%]
"C[C@@H](N)c1ccc(C(=O)Nc2ccnc3[nH]ccc23)cc1 + O=C(O)C(=O)Nc1sc2c(c1C(=O)O)CCNC2 [TCS401] (first compound 0.4 µM, partner dose 1.66667 µM)",33.1,31.3,77.8,160,76.2,78.3,133,80.5,69.1,68.9,22.9,169,58.9,146,133,160
"C[C@@H](N)c1ccc(C(=O)Nc2ccnc3[nH]ccc23)cc1 + Cc1cc([N+](=O)[O-])ccc1NS(=O)(=O)c1cc(Cl)ccc1Cl [FH535] (first compound 0.4 µM, partner dose 1 µM)",66.1,41.9,115,166,558,217,2550,592,108,88,49.5,112,150,194,74.1,125
"C[C@@H](N)c1ccc(C(=O)Nc2ccnc3[nH]ccc23)cc1 + CCN(CC)CCCCNc1ncc2cc(-c3cc(OC)cc(OC)c3)c(NC(=O)NC(C)(C)C)nc2n1 [PD173074] (first compound 0.4 µM, partner dose 0.1 µM)",111,10.2,121,45.8,112,136,114,165,237,244,149,109,62.1,83.5,224,136
"COc1ccc(C2=N[C@@H](c3ccc(Cl)cc3)[C@@H](c3ccc(Cl)cc3)N2C(=O)N2CCNC(=O)C2)c(OC(C)C)c1 [Nutlin-3] + Oc1cc(-c2nc(-c3ccccc3)[nH]c2-c2ccncc2)ccc1Cl [L779450] (first compound 0.1 µM, partner dose 0.2 µM)",104,14.7,106,44.1,45,101,102,155,88.6,82.1,83.4,139,121,215,180,62.8
"CC(=O)O[C@@]12CO[C@@H]1C[C@H](O)[C@@]1(C)C(=O)[C@H](O)C3=C(C)[C@@H](OC(=O)[C@H](O)[C@@H](NC(=O)OC(C)(C)C)c4ccccc4)C[C@@](O)([C@@H](OC(=O)c4ccccc4)[C@H]21)C3(C)C [Docetaxel] + COc1ccc2c(c1)CCC1C2CCC2(C)C(NCCCCCCN3C(=O)C=CC3=O)CCC12 [U73122] (first compound 0.0001 µM, partner dose 0.4 µM)",43.2,45.4,3120,45.7,244,183,168,163,338,490,218,375,200,137,339,110
"CC1(C)CCC(c2ccc(Cl)cc2)=C(CN2CCN(c3ccc(C(=O)NS(=O)(=O)c4ccc(N[C@H](CCN5CCOCC5)CSc5ccccc5)c(S(=O)(=O)C(F)(F)F)c4)cc3)CC2)C1 + N#Cc1c(O)c2c(-c3ccc(-c4ccccc4O)cc3)csc2[nH]c1=O [A769662] (first compound 0.4 µM, partner dose 2 µM)",124,13.2,50.8,176,364,726,272,269,624,161,218,141,42.5,194,202,33.2
"CC1(C)CCC(c2ccc(Cl)cc2)=C(CN2CCN(c3ccc(C(=O)NS(=O)(=O)c4ccc(N[C@H](CCN5CCOCC5)CSc5ccccc5)c(S(=O)(=O)C(F)(F)F)c4)cc3)CC2)C1 + CCc1ccc(CCOc2ccc(CC3SC(=O)NC3=O)cc2)nc1 [pioglitazone] (first compound 0.4 µM, partner dose 2 µM)",224,49.8,49.2,556,405,457,240,439,309,42.6,105,131,93.5,100,256,195
"Cn1cnc2c(F)c(Nc3ccc(Br)cc3Cl)c(C(=O)NOCCO)cc21 [selumetinib] + O=C(O)C(=O)Nc1sc2c(c1C(=O)O)CCNC2 [TCS401] (first compound 0.015 µM, partner dose 1.66667 µM)",169,46.3,94.5,58.4,168,101,79.2,85,88.1,56.8,111,106,90.4,186,118,110
"CN(c1ncccc1CNc1nc(Nc2ccc3c(c2)CC(=O)N3)ncc1C(F)(F)F)S(C)(=O)=O + CCCCCCCCCCCC1=C(O)C(=O)C=C(O)C1=O [Embelin] (first compound 0.08 µM, partner dose 1.2 µM)",76.3,27.7,68.8,76.2,42.3,81.2,49.5,90.3,103,148,87.8,109,50,94.5,129,65.8
